This assay has as its target T1, Histidine‐rich glycoprotein (His-HRG) (UniProt P04196).
T1 sequence: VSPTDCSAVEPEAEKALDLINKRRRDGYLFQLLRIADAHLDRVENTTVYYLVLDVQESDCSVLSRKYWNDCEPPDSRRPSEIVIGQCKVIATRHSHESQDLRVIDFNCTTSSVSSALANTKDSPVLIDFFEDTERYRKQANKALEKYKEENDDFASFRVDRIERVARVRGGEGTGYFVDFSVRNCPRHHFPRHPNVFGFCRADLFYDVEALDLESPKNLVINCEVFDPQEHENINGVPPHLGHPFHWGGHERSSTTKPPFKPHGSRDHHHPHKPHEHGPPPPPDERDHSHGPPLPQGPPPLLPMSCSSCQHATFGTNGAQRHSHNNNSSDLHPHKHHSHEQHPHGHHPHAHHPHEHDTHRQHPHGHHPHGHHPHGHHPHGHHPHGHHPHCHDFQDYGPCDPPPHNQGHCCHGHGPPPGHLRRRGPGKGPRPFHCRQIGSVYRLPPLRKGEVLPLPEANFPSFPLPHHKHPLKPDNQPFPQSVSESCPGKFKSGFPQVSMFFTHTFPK
In words: affinity purification with mass spectrometry; His-pulldown of human neutrophil membrane proteins treated with His-HRG for 8 h, then LC-MS/MS; only the target purified.

Sequences of proteins named here, by UniProt entry; tags and fusion partners are left off. Residues count along the entry.
UniProt P12314, residues 16-374: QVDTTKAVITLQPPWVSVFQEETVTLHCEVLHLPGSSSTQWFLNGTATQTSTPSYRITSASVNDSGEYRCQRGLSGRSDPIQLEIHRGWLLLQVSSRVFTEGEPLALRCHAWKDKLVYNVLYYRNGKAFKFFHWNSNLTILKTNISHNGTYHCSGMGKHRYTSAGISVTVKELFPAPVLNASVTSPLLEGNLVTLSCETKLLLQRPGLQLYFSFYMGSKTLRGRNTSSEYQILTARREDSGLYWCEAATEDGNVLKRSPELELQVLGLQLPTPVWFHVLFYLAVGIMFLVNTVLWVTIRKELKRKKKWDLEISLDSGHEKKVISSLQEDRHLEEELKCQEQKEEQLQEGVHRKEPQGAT

No constants are given. Whether binding was seen depends on the method and setting. In cells and extracts the contact can be indirect. A yes stands for co-enrichment or nearness to the bait. Other partners may have been found. Tags and fused reporters may be left off the sequences shown.

Take “FCγR1 of the human neutrophil membrane (from UniProt P12314 16-374) (receptor)”: the binding entry was “binds”.

For the origin of these results see publication PMC10230156.
